Test [1] deals with GFP-FCHO1 fusion protein, wild-type (FCH domain only 1) (human). As to the kind of experiment: co-IP; GFP-tagged FCHO1 (wt or mutant) pulled down with GFP-Trap magnetic beads from whole-cell lysates of HEK293T cells overexpressing it; lysis and two washes in RIPA buffer; blots for EPS15 and EPS15R.
The target in test [2] is C’-flag FCHO1 fusion protein (human). The experiment in a line: co-IP; N’ or C’ Flag-tagged FCHO1 pulled down with anti-Flag M2 Affinity Gel from lysates of stably transduced Jurkat cells; cells starved 1 h and stimulated with α-CD3 (OKT3) cross-linked by goat α-mouse antibody for 2 to 20 min at 37 °C; RIPA buffer; blots for EPS15 and CD3 chains.
Test [3] deals with N’-flag FCHO1 fusion protein (human). Described as above.

Results are given in words; binding and its absence hold for the method and conditions named. In cells and extracts the contact can be indirect. A result given as binding can be weak or reduced; the word gives no strength.

B1: epidermal growth factor receptor pathway substrate 15 (EPS15), in HEK293T lysate (protein, UniProt P42566 1-896)
chain: MAAAAQLSLTQLSSGNPVYEKYYRQVDTGNTGRVLASDAAAFLKKSGLPDLILGKIWDLADTDGKGILNKQEFFVALRLVACAQNGLEVSLSSLNLAVPPPRFHDTSSPLLISGTSAAELPWAVKPEDKAKYDAIFDSLSPVNGFLSGDKVKPVLLNSKLPVDILGRVWELSDIDHDGMLDRDEFAVAMFLVYCALEKEPVPMSLPPALVPPSKRKTWVVSPAEKAKYDEIFLKTDKDMDGFVSGLEVREIFLKTGLPSTLLAHIWSLCDTKDCGKLSKDQFALAFHLISQKLIKGIDPPHVLTPEMIPPSDRASLQKNIIGSSPVADFSAIKELDTLNNEIVDLQREKNNVEQDLKEKEDTIKQRTSEVQDLQDEVQRENTNLQKLQAQKQQVQELLDELDEQKAQLEEQLKEVRKKCAEEAQLISSLKAELTSQESQISTYEEELAKAREELSRLQQETAELEESVESGKAQLEPLQQHLQDSQQEISSMQMKLMEMKDLENHNSQLNWCSSPHSILVNGATDYCSLSTSSSETANLNEHVEGQSNLESEPIHQESPARSSPELLPSGVTDENEVTTAVTEKVCSELDNNRHSKEEDPFNVDSSSLTGPVADTNLDFFQSDPFVGSDPFKDDPFGKIDPFGGDPFKGSDPFASDCFFRQSTDPFATSSTDPFSAANNSSITSVETLKHNDPFAPGGTVVAASDSATDPFASVFGNESFGGGFADFSTLSKVNNEDPFRSATSSSVSNVVITKNVFEETSVKSEDEPPALPPKIGTPTRPCPLPPGKRSINKLDSPDPFKLNDPFQPFPGNDSPKEKDPEIFCDPFTSATTTTNKEADPSNFANFSAYPSEEDMIEWAKRESEREEEQRLARLNQQEQEDLELAIALSKSEISEA
For B1, the binding result in test [1] was “binds”.

B2: EPS15, in Jurkat lysate (protein, UniProt P42566 1-896)
chain: MAAAAQLSLTQLSSGNPVYEKYYRQVDTGNTGRVLASDAAAFLKKSGLPDLILGKIWDLADTDGKGILNKQEFFVALRLVACAQNGLEVSLSSLNLAVPPPRFHDTSSPLLISGTSAAELPWAVKPEDKAKYDAIFDSLSPVNGFLSGDKVKPVLLNSKLPVDILGRVWELSDIDHDGMLDRDEFAVAMFLVYCALEKEPVPMSLPPALVPPSKRKTWVVSPAEKAKYDEIFLKTDKDMDGFVSGLEVREIFLKTGLPSTLLAHIWSLCDTKDCGKLSKDQFALAFHLISQKLIKGIDPPHVLTPEMIPPSDRASLQKNIIGSSPVADFSAIKELDTLNNEIVDLQREKNNVEQDLKEKEDTIKQRTSEVQDLQDEVQRENTNLQKLQAQKQQVQELLDELDEQKAQLEEQLKEVRKKCAEEAQLISSLKAELTSQESQISTYEEELAKAREELSRLQQETAELEESVESGKAQLEPLQQHLQDSQQEISSMQMKLMEMKDLENHNSQLNWCSSPHSILVNGATDYCSLSTSSSETANLNEHVEGQSNLESEPIHQESPARSSPELLPSGVTDENEVTTAVTEKVCSELDNNRHSKEEDPFNVDSSSLTGPVADTNLDFFQSDPFVGSDPFKDDPFGKIDPFGGDPFKGSDPFASDCFFRQSTDPFATSSTDPFSAANNSSITSVETLKHNDPFAPGGTVVAASDSATDPFASVFGNESFGGGFADFSTLSKVNNEDPFRSATSSSVSNVVITKNVFEETSVKSEDEPPALPPKIGTPTRPCPLPPGKRSINKLDSPDPFKLNDPFQPFPGNDSPKEKDPEIFCDPFTSATTTTNKEADPSNFANFSAYPSEEDMIEWAKRESEREEEQRLARLNQQEQEDLELAIALSKSEISEA
For the molecule B2, the binding entry in test [2] and in test [3] was “binds” in each case.
